Data reported in publication doi:10.1101/2021.03.11.435015.
Where two headings read alike, the source gives them in different places. No constants are given. Whether binding was seen depends on the method and setting. In cells and extracts the contact can be indirect. A yes stands for co-enrichment or nearness to the bait. Other partners may have been found.

Protein sequences, listed by entry. Tags and fused reporters are not part of them.
UniProt Q80U78: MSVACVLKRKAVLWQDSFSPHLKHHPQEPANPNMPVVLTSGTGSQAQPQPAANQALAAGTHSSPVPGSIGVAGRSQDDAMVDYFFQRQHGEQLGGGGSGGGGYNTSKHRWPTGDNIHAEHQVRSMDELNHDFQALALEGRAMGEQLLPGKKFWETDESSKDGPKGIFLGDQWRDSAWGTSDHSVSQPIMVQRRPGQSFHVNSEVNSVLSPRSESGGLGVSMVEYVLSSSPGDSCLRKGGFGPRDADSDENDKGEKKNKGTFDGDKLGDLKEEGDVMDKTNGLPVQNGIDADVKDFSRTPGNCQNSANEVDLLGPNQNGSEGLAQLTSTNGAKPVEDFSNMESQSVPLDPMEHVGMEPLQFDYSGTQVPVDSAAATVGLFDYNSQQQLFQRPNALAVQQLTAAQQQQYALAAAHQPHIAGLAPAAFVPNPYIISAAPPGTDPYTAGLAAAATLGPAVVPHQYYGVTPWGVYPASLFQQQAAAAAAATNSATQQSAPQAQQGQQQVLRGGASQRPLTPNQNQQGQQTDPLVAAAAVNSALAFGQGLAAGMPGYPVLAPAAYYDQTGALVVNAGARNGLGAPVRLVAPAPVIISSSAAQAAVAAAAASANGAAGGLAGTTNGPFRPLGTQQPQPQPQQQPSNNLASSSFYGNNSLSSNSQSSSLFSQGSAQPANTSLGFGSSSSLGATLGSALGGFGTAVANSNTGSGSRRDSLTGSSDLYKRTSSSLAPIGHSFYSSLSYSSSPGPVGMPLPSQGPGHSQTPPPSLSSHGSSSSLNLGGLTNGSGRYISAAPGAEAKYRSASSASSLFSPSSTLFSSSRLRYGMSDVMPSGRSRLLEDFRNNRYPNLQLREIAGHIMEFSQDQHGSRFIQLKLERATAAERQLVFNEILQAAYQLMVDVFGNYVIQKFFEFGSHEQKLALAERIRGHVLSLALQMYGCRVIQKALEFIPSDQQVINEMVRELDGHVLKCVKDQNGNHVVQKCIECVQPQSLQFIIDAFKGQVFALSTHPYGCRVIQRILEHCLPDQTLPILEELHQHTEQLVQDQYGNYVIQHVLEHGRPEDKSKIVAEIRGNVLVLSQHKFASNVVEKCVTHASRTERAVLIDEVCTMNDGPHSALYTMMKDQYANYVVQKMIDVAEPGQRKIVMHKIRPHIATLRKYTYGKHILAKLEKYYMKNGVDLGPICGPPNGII
UniProt Q8C5L3: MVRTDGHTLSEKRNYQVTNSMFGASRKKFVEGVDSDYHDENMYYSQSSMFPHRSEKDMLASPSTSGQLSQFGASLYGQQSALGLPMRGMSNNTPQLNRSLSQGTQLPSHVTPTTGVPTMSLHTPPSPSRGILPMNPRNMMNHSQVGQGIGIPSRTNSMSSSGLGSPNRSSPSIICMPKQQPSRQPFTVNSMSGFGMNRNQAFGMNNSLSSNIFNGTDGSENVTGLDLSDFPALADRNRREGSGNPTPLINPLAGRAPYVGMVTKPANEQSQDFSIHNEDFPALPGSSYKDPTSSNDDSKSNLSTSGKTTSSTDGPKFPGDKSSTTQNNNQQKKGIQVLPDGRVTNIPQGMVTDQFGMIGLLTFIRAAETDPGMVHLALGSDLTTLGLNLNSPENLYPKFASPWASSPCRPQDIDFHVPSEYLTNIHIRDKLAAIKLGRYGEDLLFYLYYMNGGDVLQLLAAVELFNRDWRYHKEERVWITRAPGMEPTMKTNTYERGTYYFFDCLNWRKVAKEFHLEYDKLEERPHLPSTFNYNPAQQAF
UniProt Q8BH15: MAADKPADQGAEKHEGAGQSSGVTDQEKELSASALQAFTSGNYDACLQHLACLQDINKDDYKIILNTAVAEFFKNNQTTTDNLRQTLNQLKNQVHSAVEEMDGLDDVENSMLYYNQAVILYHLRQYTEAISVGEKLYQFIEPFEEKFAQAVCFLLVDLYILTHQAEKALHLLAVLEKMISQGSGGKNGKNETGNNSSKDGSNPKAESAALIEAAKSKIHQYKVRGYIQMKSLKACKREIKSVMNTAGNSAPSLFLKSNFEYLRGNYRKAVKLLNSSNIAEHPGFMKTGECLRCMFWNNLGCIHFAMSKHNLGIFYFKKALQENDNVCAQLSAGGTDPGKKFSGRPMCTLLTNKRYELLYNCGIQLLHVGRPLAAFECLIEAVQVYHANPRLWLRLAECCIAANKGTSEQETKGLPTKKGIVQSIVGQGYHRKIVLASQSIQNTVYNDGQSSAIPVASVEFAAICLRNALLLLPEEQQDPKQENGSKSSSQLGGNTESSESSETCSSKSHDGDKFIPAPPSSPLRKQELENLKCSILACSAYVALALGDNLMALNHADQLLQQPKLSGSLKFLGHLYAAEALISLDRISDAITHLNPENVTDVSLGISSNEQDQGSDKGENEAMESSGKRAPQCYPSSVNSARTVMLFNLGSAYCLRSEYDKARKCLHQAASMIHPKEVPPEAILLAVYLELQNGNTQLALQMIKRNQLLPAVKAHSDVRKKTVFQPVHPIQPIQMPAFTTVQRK
UniProt Q8JZQ9: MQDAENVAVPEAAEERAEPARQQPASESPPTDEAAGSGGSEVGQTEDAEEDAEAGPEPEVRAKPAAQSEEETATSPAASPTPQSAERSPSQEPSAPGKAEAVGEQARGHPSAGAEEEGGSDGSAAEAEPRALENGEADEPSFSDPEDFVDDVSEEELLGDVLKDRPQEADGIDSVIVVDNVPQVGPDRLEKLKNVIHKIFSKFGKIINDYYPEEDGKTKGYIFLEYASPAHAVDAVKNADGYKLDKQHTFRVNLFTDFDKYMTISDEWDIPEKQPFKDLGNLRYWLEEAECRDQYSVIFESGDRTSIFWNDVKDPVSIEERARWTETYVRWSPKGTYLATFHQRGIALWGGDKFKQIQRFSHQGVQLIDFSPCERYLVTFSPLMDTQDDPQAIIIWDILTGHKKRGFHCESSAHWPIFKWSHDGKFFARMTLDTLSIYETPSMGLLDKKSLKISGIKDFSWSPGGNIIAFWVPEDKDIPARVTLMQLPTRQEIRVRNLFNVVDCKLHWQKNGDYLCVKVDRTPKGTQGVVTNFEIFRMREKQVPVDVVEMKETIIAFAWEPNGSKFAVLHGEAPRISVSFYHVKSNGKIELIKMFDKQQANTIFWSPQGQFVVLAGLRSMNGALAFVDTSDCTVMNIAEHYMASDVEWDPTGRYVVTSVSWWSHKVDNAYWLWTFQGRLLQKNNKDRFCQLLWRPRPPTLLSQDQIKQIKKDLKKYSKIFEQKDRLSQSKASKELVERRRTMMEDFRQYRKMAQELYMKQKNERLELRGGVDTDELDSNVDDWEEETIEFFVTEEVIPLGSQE
UniProt Q9R1K5: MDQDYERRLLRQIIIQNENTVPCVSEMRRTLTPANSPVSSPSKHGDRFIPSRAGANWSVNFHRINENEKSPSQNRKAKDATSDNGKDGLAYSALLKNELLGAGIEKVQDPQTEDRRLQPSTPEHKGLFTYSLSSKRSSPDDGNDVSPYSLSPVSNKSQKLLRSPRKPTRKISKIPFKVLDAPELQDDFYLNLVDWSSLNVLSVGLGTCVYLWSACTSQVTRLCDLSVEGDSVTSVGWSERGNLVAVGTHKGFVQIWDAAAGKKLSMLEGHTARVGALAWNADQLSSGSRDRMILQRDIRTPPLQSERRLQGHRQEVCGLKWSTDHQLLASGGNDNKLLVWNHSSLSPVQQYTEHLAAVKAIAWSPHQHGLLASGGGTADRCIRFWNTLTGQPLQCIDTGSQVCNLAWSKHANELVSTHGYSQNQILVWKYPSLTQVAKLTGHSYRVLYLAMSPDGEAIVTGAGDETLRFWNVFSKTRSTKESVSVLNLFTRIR
UniProt Q80U58: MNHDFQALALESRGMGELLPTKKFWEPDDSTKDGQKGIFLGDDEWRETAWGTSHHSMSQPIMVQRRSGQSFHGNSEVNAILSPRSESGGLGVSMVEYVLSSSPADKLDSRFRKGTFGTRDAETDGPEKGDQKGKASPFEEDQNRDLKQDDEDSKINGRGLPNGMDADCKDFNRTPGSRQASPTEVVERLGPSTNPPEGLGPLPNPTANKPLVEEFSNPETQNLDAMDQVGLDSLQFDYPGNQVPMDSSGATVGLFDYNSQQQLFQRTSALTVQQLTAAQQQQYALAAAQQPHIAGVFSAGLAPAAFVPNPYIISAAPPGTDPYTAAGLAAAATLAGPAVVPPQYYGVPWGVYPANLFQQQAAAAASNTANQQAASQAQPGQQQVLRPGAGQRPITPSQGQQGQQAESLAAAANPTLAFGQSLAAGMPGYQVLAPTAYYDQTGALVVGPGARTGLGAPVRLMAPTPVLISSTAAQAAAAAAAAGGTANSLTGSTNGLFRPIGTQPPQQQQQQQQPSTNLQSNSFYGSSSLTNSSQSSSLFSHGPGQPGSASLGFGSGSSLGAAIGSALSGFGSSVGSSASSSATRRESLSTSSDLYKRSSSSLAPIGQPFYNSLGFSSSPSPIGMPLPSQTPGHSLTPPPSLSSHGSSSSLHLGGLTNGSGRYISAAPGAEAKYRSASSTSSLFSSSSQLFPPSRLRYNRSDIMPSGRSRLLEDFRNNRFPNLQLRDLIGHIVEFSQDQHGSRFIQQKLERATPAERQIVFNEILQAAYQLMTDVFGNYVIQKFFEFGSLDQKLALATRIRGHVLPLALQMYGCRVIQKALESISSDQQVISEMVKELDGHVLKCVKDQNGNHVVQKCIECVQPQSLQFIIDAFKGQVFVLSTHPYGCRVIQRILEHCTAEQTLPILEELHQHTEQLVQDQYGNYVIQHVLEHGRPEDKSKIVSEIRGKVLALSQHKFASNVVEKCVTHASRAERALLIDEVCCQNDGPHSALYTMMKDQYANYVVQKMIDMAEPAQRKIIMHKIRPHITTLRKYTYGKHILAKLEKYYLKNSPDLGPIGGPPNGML
UniProt Q8K4Q0: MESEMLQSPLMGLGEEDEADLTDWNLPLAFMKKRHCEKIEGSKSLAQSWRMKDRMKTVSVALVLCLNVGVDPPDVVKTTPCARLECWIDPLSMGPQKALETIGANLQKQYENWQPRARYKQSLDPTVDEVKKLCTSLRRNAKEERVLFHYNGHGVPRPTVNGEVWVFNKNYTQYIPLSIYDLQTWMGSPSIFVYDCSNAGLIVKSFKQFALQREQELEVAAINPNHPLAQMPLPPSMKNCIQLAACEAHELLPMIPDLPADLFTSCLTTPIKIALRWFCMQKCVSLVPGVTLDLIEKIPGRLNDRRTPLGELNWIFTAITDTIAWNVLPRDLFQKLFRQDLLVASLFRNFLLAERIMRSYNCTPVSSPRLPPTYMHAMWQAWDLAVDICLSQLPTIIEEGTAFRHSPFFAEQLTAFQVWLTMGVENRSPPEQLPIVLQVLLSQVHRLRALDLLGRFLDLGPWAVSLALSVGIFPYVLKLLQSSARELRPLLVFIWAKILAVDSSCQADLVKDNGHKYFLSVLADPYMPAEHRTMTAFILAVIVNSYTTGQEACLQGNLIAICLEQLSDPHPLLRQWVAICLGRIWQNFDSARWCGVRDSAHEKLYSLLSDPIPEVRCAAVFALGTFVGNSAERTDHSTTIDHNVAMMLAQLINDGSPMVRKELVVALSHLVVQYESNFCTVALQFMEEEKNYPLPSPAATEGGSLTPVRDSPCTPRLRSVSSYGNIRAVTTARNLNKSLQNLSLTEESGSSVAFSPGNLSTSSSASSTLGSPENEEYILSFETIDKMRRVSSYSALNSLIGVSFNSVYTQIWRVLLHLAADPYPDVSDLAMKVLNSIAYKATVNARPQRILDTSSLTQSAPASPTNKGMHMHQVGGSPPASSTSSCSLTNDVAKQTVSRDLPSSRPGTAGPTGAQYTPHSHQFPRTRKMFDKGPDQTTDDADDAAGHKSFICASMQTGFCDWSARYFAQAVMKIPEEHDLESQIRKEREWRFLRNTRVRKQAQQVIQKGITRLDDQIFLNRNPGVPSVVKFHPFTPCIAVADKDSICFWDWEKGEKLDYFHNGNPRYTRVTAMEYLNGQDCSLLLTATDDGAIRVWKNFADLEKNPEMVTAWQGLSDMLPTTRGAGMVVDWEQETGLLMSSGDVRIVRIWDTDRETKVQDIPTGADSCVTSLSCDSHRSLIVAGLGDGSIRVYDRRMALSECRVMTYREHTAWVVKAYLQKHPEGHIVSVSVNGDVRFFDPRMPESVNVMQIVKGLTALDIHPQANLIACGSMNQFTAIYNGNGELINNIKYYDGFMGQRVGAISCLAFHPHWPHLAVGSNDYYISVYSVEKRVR

Experiments:
Experiment in all cases: affinity purification with mass spectrometry
[1] = biological target: Pumilio1 (Pum1), mouse (mouse (endogenous in brain)) (UniProt Q80U78)
[2] = biological target: Pumilio1 (Pum1), mouse (mouse (endogenous in brain)) (UniProt Q80U78); remark: listed apart in the source
[3] = biological target: Pumilio1 (Pum1), mouse (mouse (endogenous in brain)) (UniProt Q80U78); remark: listed apart in the source
[4] = biological target: Pumilio1 (Pum1), mouse (mouse (endogenous in brain)) (UniProt Q80U78); remark: listed apart in the source

Molecule	binding [1]	further results
Ago2, mouse (from UniProt Q8CJG0 1-860)	binds	–
Anapc1, mouse (from UniProt P53995 1-1944)	binds	–
Cad, mouse (from UniProt B2RQC6 1-2225)	binds	–
Cnot1, mouse (from UniProt Q6ZQ08 1-2375)	binds	binding [2]: binds
Cnot2, mouse (from UniProt Q8C5L3 1-540)	binds	–
Cnot10, mouse (from UniProt Q8BH15 1-744)	binds	–
Eif3b, mouse (from UniProt Q8JZQ9 1-803)	binds	binding [3]: binds
Fzr1, mouse (from UniProt Q9R1K5 1-493)	binds	–
Pum2, mouse (from UniProt Q80U58 1-1066)	binds	–
Rptor, mouse (from UniProt Q8K4Q0 1-1335)	binds	–
Rbfox1, mouse (protein, UniProt Q9JJ43 1-396) MNCEREQLRGNQEAAAAPDTMAQPYASAQFAPPQNGIPAEYTAPHPHPAPEYTGQTTVPDHTLNLYPPTQTHSEQSADTSAQTVSGTATQTDDAAPTDGQPQTQPSENTESKSQPKRLHVSNIPFRFRDPDLRQMFGQFGKILDVEIIFNERGSKGFGFVTFENSADADRAREKLHGTVVEGRKIEVNNATARVMTNKKTVNPYTNGWKLNPVVGAVYSPDFYAGTVLLCQANQEGSSMYSGPSSLVYTSAMPGFPYPAATAAAAYRGAHLRGRGRTVYNTFRAAAPPPPIPAYGGVVYQDGFYGADIYGGYAAYRYAQPTPATAAAYSDSYGRVYAADPYHHTLAPAPTYGVGAMNAFAPLTDAKTRSHADDVGLVLSSLQASIYRGGYNRFAPY	–	binding [4]: binds
Rbfox2, mouse (protein, UniProt Q8BP71 1-449) MAEGGQAQQQPPQLGPGAAARGMKRESEVELPVPGAGADGPEPGLSKRPRTEEAADGGMQNEPLTPGYHGFPARDGQGNQEPTTTPDAMVQPFTTIPFPPPPQNGIPTEYGVPHTQDYAGQTSEHNLTLYGSTQPHGEQSSNSPSNQNGSLTQTEGGAQTDGQQSQTQSSENSESKSTPKRLHVSNIPFRFRDPDLRQMFGQFGKILDVEIIFNERGSKGFGFVTFENSADADRAREKLHGTVVEGRKIEVNNATARVMTNKKMVTPYANGWKLSPVVGAVYGPELYAASSFQADVSLGNEAAVPLSGRGGINTYIPLISLPLVPGFPYPTAATTAAAFRGAHLRGRGRTVYGAVRAVPPTAIPAYPGVVYQDGFYGADLYGGYAAYRYAQPATATAATAAAAAAAAYSDGYGRVYTADPYHALAPAASYGVGAVASLYRGGYSRFAPY	–	binding [3]: binds; binding [4]: binds
